Source: PMC5663958, “DNA Ligase C and Prim-PolC participate in base excision repair in mycobacteria” (Nature Communications, 2017)
Results are given in words; binding and its absence hold for the method and conditions named. For some assays here: A result given as binding can be weak or reduced; the word gives no strength. For some assays here: Where a sequence is shown, tags or fusion partners need not be part of it.

Protein sequences, listed by entry. Tags and fused reporters are not part of them. Lines headed by an entry give the natural chain unless they say otherwise; changes in a name come on top.
UniProt A0R5T1: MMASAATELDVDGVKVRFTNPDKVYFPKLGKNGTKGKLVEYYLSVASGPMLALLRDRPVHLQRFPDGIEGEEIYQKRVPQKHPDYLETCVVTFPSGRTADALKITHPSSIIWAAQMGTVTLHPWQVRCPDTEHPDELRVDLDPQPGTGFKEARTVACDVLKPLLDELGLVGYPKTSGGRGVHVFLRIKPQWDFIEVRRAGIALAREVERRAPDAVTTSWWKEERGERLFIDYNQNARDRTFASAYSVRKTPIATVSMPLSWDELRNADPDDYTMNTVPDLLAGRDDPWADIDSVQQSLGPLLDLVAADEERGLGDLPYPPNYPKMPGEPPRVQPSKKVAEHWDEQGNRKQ

Experiments:
[1] = target: T1, exodeoxyribonuclease VIIB (ExoVIIB), recombinant (M. smegmatis) (UniProt A0R2T5); assay: far-Western, overlay or dot blot; recombinant proteins slot-blotted on a membrane (3 μg of the possible interactors, 50 ng of the probed protein), blocked in TBS, 0.05% Tween 20, 5% milk; incubated with 5 μg ml^−1 Prim-PolC or LigC1; detected with Prim-PolC- or LigC1-specific antibodies; both purified
T1 sequence: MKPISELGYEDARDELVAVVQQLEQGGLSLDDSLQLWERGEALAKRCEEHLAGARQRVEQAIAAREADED

[2] = target: T2, DNA ligase C1 (LigC1, msmeg_6302), recombinant, His-tagged construct (M. smegmatis) (UniProt A0R5T2); assay: as above
T2 sequence: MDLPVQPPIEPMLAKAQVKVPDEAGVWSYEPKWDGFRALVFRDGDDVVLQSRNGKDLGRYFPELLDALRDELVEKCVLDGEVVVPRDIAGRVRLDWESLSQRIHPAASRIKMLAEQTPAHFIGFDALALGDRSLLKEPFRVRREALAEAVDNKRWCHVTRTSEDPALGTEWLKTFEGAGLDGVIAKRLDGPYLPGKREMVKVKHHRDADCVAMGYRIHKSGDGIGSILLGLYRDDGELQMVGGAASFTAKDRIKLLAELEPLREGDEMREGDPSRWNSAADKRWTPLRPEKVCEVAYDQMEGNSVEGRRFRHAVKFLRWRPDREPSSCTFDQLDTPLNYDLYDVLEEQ

[3] = target: Mono-functional DNA glycosylase (MPG), recombinant (M. smegmatis); assay: as above
[4] = target: endonuclease IV (EndoIV), recombinant (M. smegmatis); assay: as above
[5] = target: exonuclease III paralogue ExoIII, recombinant (M. smegmatis); assay: as above
[6] = target: Prim-PolC (MSMEG_6301), recombinant (M. smegmatis) (UniProt A0R5T1); assay: as above
[7] = target: exonuclease III paralogue XthA, recombinant (M. smegmatis); assay: as above
[8] = target: Mono-functional DNA glycosylase (MPG), recombinant (M. smegmatis); assay: pull-down; FPG-6xHis or 6xHis-MPG bound to Ni-NTA resin in 50 mM Tris pH 8.0, 150 mM NaCl, 1 h at 4 °C; tag-free LigC or BSA added for 2 h; equimolar proteins; eluted with imidazole; SDS-PAGE and Coomassie staining; both purified

Prim-PolC (MSMEG_6301), recombinant (from UniProt A0R5T1) (enzyme)
binding [1]: no binding (tested: 5 μg ml^−1 probe on 3 μg blotted protein) | binding [2]: binds

B1: DNA ligase C1 (LigC1, msmeg_6302), recombinant, His-tagged construct (enzyme, UniProt A0R5T2 1-348)
chain: MDLPVQPPIEPMLAKAQVKVPDEAGVWSYEPKWDGFRALVFRDGDDVVLQSRNGKDLGRYFPELLDALRDELVEKCVLDGEVVVPRDIAGRVRLDWESLSQRIHPAASRIKMLAEQTPAHFIGFDALALGDRSLLKEPFRVRREALAEAVDNKRWCHVTRTSEDPALGTEWLKTFEGAGLDGVIAKRLDGPYLPGKREMVKVKHHRDADCVAMGYRIHKSGDGIGSILLGLYRDDGELQMVGGAASFTAKDRIKLLAELEPLREGDEMREGDPSRWNSAADKRWTPLRPEKVCEVAYDQMEGNSVEGRRFRHAVKFLRWRPDREPSSCTFDQLDTPLNYDLYDVLEEQ
binding [3]: binds | binding [4]: binds | binding [5]: binds | binding [6]: binds | binding [7]: binds

B2: tag-free LigC1 (6xHis-LigC subjected to thrombin digestion) (enzyme, UniProt A0R5T2 1-348)
chain: MDLPVQPPIEPMLAKAQVKVPDEAGVWSYEPKWDGFRALVFRDGDDVVLQSRNGKDLGRYFPELLDALRDELVEKCVLDGEVVVPRDIAGRVRLDWESLSQRIHPAASRIKMLAEQTPAHFIGFDALALGDRSLLKEPFRVRREALAEAVDNKRWCHVTRTSEDPALGTEWLKTFEGAGLDGVIAKRLDGPYLPGKREMVKVKHHRDADCVAMGYRIHKSGDGIGSILLGLYRDDGELQMVGGAASFTAKDRIKLLAELEPLREGDEMREGDPSRWNSAADKRWTPLRPEKVCEVAYDQMEGNSVEGRRFRHAVKFLRWRPDREPSSCTFDQLDTPLNYDLYDVLEEQ
binding [8]: binds
